Source: PubChem BioAssay AID1259424 (University of Nebraska Medical Center, 2018)

Aim: 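Rank knockdowns across the genome by resemblance to the KSR1 depletion profile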 (primary screen)
System: human HCT116 colon cancer cells
Knock-down reagent: siRNA pool against human genes, 50 nM
Measurement: 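Six signature mRNAs by branched-DNA multiplex assay, scaled to two housekeeping genes and non-targeting median, log2; matched to mean KSR1 knockdown profile by Pearson correlation and euclidean distance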
Scale: mean correlation with KSR1 profile: higher = expression change more like KSR1 knockdown
Shown is a random part of about 14,000 deposited reagents. 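Higher correlation or smaller distance means closer resemblance to KSR1 loss; control wells, including KSR1 knockdowns, recur on many plates.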 Not all columns of the deposit are shown. Not given: the time to read-out.

Silencing of SLC4A11 resulted in: mean correlation with KSR1 profile 0.675. Depletion of PAGE1 resulted in: mean correlation with KSR1 profile -0.0357. Silencing of FKTN gave: mean correlation with KSR1 profile -0.287. After knock-down of PTTG2, the screen gave mean correlation with KSR1 profile 0.532. After knock-down of C3AR1, the record shows mean correlation with KSR1 profile 0.613. ZNF280D gave mean correlation with KSR1 profile -0.659.

For KCNV1 the deposit lists mean correlation with KSR1 profile -0.0293. For ANAPC13, the entry reads mean correlation with KSR1 profile -0.319. After knock-down of ITGB3BP, the record shows mean correlation with KSR1 profile -0.236. Silencing of IFT38 resulted in: mean correlation with KSR1 profile -0.346. For CHTOP, the entry reads mean correlation with KSR1 profile -0.368. With knock-down of GNPAT, the record shows mean correlation with KSR1 profile -0.133.

Against LINS1, the values are mean correlation with KSR1 profile -0.279. TSPAN15 scored mean correlation with KSR1 profile -0.326. Against TMC7, the entry reads mean correlation with KSR1 profile 0.251. Knock-down of ATRN resulted in: mean correlation with KSR1 profile -0.121. After knock-down of SIRPA the results were mean correlation with KSR1 profile -0.524. Against TASOR, the entry reads mean correlation with KSR1 profile -0.116.

Depletion of PODNL1 resulted in: mean correlation with KSR1 profile -0.0965. Depletion of MYOM2 resulted in: mean correlation with KSR1 profile -0.264. ZNF239 gave mean correlation with KSR1 profile -0.263. After knock-down of JRKL, the record shows mean correlation with KSR1 profile 0.865. With knock-down of PPHLN1, the screen gave mean correlation with KSR1 profile -0.918. Knock-down of HNRNPC gave: mean correlation with KSR1 profile -0.301.

Depletion of PRKD1 came out at: mean correlation with KSR1 profile -0.302. With knock-down of IGHM, the record shows mean correlation with KSR1 profile 0.581. Against KCNQ5 the deposit lists mean correlation with KSR1 profile -0.1. Depletion of AAMDC gave: mean correlation with KSR1 profile 0.294. With knock-down of PRPF38B, the record shows mean correlation with KSR1 profile -0.0529. For HES2 the deposit lists mean correlation with KSR1 profile -0.112.

With knock-down of EDEM1, the record shows mean correlation with KSR1 profile 0.339. For CHD7, the entry reads mean correlation with KSR1 profile -0.138. For HMBOX1, the entry reads mean correlation with KSR1 profile -0.0722. Silencing of CD5L came out at: mean correlation with KSR1 profile -0.732. Silencing of DCTN2 resulted in: mean correlation with KSR1 profile -0.292. After knock-down of HNRNPH1, the screen gave mean correlation with KSR1 profile 0.0504.

In a second layout: entries from further up.
gene | mean correlation with KSR1 profile
HMBOX1 | -0.0722
CD5L | -0.732
